Binding data for 1 molecule are collected here from paper PMC7584542.

Assay [1] concerns the target human integrin αvβ3 (human). The assay can be described thus: atomic force microscopy; αvβ3 integrin covalently bound on GA-modified silicon, blocked with BSA; 100 μg/mL LACT in PBS for 1 h; topography in non-contact mode; both purified.
Assay [2] concerns the target human integrin αvβ3 (human). Kind of assay: ToF-SIMS; αvβ3 integrin covalently bound on GA-modified silicon, blocked with BSA; 100 μg/mL LACT in PBS for 1 h; asparagine ion C4H4NO2+ as the signal of LACT; both purified.

No constants are given. Whether binding was seen depends on the method and setting. A result given as binding can be weak or reduced; the word gives no strength.

B1: Human recombinant lactadherin (LACT) (protein, UniProt Q08431 24-387)
chain: LDICSKNPCHNGGLCEEISQEVRGDVFPSYTCTCLKGYAGNHCETKCVEPLGLENGNIANSQIAASSVRVTFLGLQHWVPELARLNRAGMVNAWTPSSNDDNPWIQVNLLRRMWVTGVVTQGASRLASHEYLKAFKVAYSLNGHEFDFIHDVNKKHKEFVGNWNKNAVHVNLFETPVEAQYVRLYPTSCHTACTLRFELLGCELNGCANPLGLKNNSIPDKQITASSSYKTWGLHLFSWNPSYARLDKQGNFNAWVAGSYGNDQWLQVDLGSSKEVTGIITQGARNFGSVQFVASYKVAYSNDSANWTEYQDPRTGSSKIFPGNWDNHSHKKNLFETPILARYVRILPVAWHNRIALRLELLGC
Consider B1, for which the binding entry in assay [1] and in assay [2] was “binds” in each case.
